This test in a line: Extended Characterization of HPGD Inhibitors: PGE2 Assay in LNCaP Cells. Conditions: PGE2 HTRF level, 16 h; at 100 µM (top of the series). The text has this: The central role of HPGD is to inactivate prostaglandins such as prostaglandin E2 (PGE2) or prostaglandin D2 (PGD2). These prostaglandins are involved in a number of processes, including inflammation, differentiation, and cellular signaling, which makes HPGD an important target for pharmacological intervention. A number of prostaglandins of particular biological interest have been identified as substrates of HPGD. […] Over-production of PGE2 has been reported to promote tumor-associated neovascularization, cell proliferation, and tumor growth. […] In this orthogonal assay, we set out to measure if compounds were able to increase PGE2 production NIH Chemical Genomics Center [NCGC] NIH Molecular Libraries Probe Centers Network [MLPCN] MLPCN Grant: MH084681 Assay Submitter (PI): Structural Genomics Consortium
A549 cells, LNCaP cells or media were dispensed in 384-well plates (ProxiPlate-384 Plus, PerkinElmer, Shelton, CT) at 5,000 cells/9.9 uL/well using a CappAero384 multichannel pipette (Odense, Denmark). […] Time-resolved fluorescence intensity (320 nm excitation, 615 and 665 nm emission) was measured using an Envision plate reader (PerkinElmer). Data was expressed as the ratio of 665 nm/615 nm emissions. Concentration (pg/mL) of samples were calculated from a 4-parameter logistic calibration curves of the PGE2 standards.
For orientation: Time-resolved FRET reads energy transfer from a long-lived donor to a nearby acceptor.

For two compounds, PGE2 level, % of control (higher = increase) results are on record in PubChem BioAssay AID743172 (National Center for Advancing Translational Sciences (NCATS), 2013).

The list shows a part of the results, in another mix than the full data. Where no call is shown, the source filed none. Inconclusive results are not listed. Active and inactive are the calls of the source. Calls follow the shape of the dose curve; as a rule, active = well fitted activation curve with a large enough effect; inconclusive = small, poorly fitted or top-dose-only effect; inactive = no such curve, though single readings can be large or run the other way.

With `CCOC(=O)c1ccc(-n2cnc3cc(C(=O)N4CCCCC4)ccc32)cc1`, the PGE2 level, % of control (higher = increase) was inactive: 450%. Under `Cc1cccc(-n2cnc3cc(C(=O)N4CC(C)CC(C)C4)ccc32)c1` (configuration not stated) stands 197%.
